# In the supplement of paper PMC8728848:
# The list shows a part of the results.
# B1: Pwp6 (Candida glabrata) (protein)
# chain: MGSSHHHHHHSSGLVPRGSHMASANLPKLTNICQIPDNVKKTSGFKGEIRRIGLFPPGGDYTYLLKFPSTGSTASDTISLTTKPQLSTSGWFPSLFGHTYFIKADLLVYMVAYFVPTETGEYTFKLVNSDDAAVMYVGNPSAFPCGSIDTWPEPRKEDINVCDKISASTKLYMEKGLAYPVRLVWYNGGGDGQFNAQFIDPSGTTHTDWNGYVWQYDACTDCDYK
# How the values were obtained:
# Test in all cases: glycan array binding signal (z-score within array); higher = stronger binding
# Conditions in all cases: glycan notation: IUPAC condensed, linker removed
# [1] = target: Gal(b1-4)GlcNAc(b1-2)Man(a1-6)[Man(a1-3)]Man(b1-4)GlcNAc(b1-4)GlcNAc
# How it was run: (§1)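 From the Consortium for Functional Glycomics database, 3228 arrays were curated, keeping only those whose protein sequence was available. Binding is given as a within-array Z-score averaged across arrays sharing a protein sequence and across linkers. Negative Z-scores can be read as non-binding.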
# [2] = target: Gal(b1-4)GlcNAc(b1-2)[Gal(b1-4)GlcNAc(b1-4)]Man(a1-3)[Gal(b1-4)GlcNAc(b1-2)Man(a1-6)]Man(b1-4)GlcNAc(b1-4)GlcNAc
# How it was run: as §1
# [3] = target: Gal(b1-4)GlcNAc(b1-2)[Gal(b1-4)GlcNAc(b1-4)]Man(a1-3)[Gal(b1-4)GlcNAc(b1-2)[Gal(b1-4)GlcNAc(b1-6)]Man(a1-6)]Man(b1-4)GlcNAc(b1-4)GlcNAc
# How it was run: as §1
# [4] = target: Gal(b1-4)GlcNAc(b1-2)[Gal(b1-4)GlcNAc(b1-4)]Man(a1-3)[GlcNAc(b1-4)][Gal(b1-4)GlcNAc(b1-2)Man(a1-6)]Man(b1-4)GlcNAc(b1-4)GlcNAc
# How it was run: as §1
# [5] = target: Gal(b1-4)GlcNAc(b1-2)[Gal(b1-4)GlcNAc(b1-4)]Man(a1-3)[GlcNAc(b1-4)][Gal(b1-4)GlcNAc(b1-2)[Gal(b1-4)GlcNAc(b1-6)]Man(a1-6)]Man(b1-4)GlcNAc(b1-4)GlcNAc
# How it was run: as §1
# [6] = target: Gal(b1-4)GlcNAc(b1-2)[Gal(b1-4)GlcNAc(b1-6)]Man(a1-6)[Gal(b1-4)GlcNAc(b1-2)Man(a1-3)]Man(b1-4)GlcNAc(b1-4)GlcNAc
# How it was run: as §1
# [7] = target: Gal(b1-4)GlcNAc(b1-2)[Gal(b1-4)GlcNAc(b1-6)]Man(a1-6)[Gal(b1-4)GlcNAc(b1-2)Man(a1-3)]Man(b1-4)GlcNAc(b1-4)[Fuc(a1-6)]GlcNAc
# How it was run: as §1
# [8] = target: Gal(b1-4)GlcNAc(b1-2)[Gal(b1-4)GlcNAc(b1-6)]Man(a1-6)[GlcNAc(b1-4)][Gal(b1-4)GlcNAc(b1-2)Man(a1-3)]Man(b1-4)GlcNAc(b1-4)GlcNAc
# How it was run: as §1
# [9] = target: Gal(b1-4)GlcNAc(b1-2)[Gal(b1-4)GlcNAc(b1-6)]Man(a1-6)[GlcNAc(b1-4)][Gal(b1-4)GlcNAc(b1-2)[Gal(b1-4)GlcNAc(b1-4)]Man(a1-3)]Man(b1-4)GlcNAc(b1-4)[Fuc(a1-6)]GlcNAc
# How it was run: as §1
# [10] = target: Gal(b1-4)GlcNAc(b1-3)Gal(b1-3)GalNAc
# How it was run: as §1
# [11] = target: Gal(b1-4)GlcNAc(b1-3)Gal(b1-3)GlcNAc
# How it was run: as §1
# [12] = target: Gal(b1-4)GlcNAc(b1-3)Gal(b1-4)Glc
# How it was run: as §1
# [13] = target: Gal(b1-4)GlcNAc(b1-3)Gal(b1-4)GlcNAc
# How it was run: as §1
# [14] = target: Gal(b1-4)GlcNAc(b1-3)Gal(b1-4)GlcNAc(b1-2)Man(a1-3)[Gal(b1-4)GlcNAc(b1-3)Gal(b1-4)GlcNAc(b1-2)Man(a1-6)]Man(b1-4)GlcNAc(b1-4)GlcNAc
# How it was run: as §1
# [15] = target: Gal(b1-4)GlcNAc(b1-3)Gal(b1-4)GlcNAc(b1-2)Man(a1-3)[Gal(b1-4)GlcNAc(b1-3)Gal(b1-4)GlcNAc(b1-2)Man(a1-6)]Man(b1-4)GlcNAc(b1-4)[Fuc(a1-6)]GlcNAc
# How it was run: as §1
# [16] = target: Gal(b1-4)GlcNAc(b1-3)Gal(b1-4)GlcNAc(b1-2)[Gal(b1-4)GlcNAc(b1-3)Gal(b1-4)GlcNAc(b1-6)]Man(a1-6)[Gal(b1-4)GlcNAc(b1-3)Gal(b1-4)GlcNAc(b1-2)Man(a1-3)]Man(b1-4)GlcNAc(b1-4)GlcNAc
# How it was run: as §1
# [17] = target: Gal(b1-4)GlcNAc(b1-3)Gal(b1-4)GlcNAc(b1-2)[Gal(b1-4)GlcNAc(b1-3)Gal(b1-4)GlcNAc(b1-6)]Man(a1-6)[Gal(b1-4)GlcNAc(b1-3)Gal(b1-4)GlcNAc(b1-2)Man(a1-3)]Man(b1-4)GlcNAc(b1-4)[Fuc(a1-6)]GlcNAc
# How it was run: as §1
# [18] = target: Gal(b1-4)GlcNAc(b1-3)Gal(b1-4)GlcNAc(b1-3)Gal(b1-4)GlcNAc
# How it was run: as §1
# [19] = target: Gal(b1-4)GlcNAc(b1-3)Gal(b1-4)GlcNAc(b1-3)Gal(b1-4)GlcNAc(b1-2)Man(a1-3)[Gal(b1-4)GlcNAc(b1-3)Gal(b1-4)GlcNAc(b1-3)Gal(b1-4)GlcNAc(b1-2)Man(a1-6)]Man(b1-4)GlcNAc(b1-4)GlcNAc
# How it was run: as §1
# [20] = target: Gal(b1-4)GlcNAc(b1-3)Gal(b1-4)GlcNAc(b1-3)Gal(b1-4)GlcNAc(b1-2)Man(a1-3)[Gal(b1-4)GlcNAc(b1-3)Gal(b1-4)GlcNAc(b1-3)Gal(b1-4)GlcNAc(b1-2)Man(a1-6)]Man(b1-4)GlcNAc(b1-4)[Fuc(a1-6)]GlcNAc
# How it was run: as §1
# [21] = target: Gal(b1-4)GlcNAc(b1-3)Gal(b1-4)GlcNAc(b1-3)Gal(b1-4)GlcNAc(b1-2)[Gal(b1-4)GlcNAc(b1-3)Gal(b1-4)GlcNAc(b1-3)Gal(b1-4)GlcNAc(b1-6)]Man(a1-6)[Gal(b1-4)GlcNAc(b1-3)Gal(b1-4)GlcNAc(b1-3)Gal(b1-4)GlcNAc(b1-2)Man(a1-3)]Man(b1-4)GlcNAc(b1-4)[Fuc(a1-6)]GlcNAc
# How it was run: as §1
# [22] = target: Gal(b1-4)GlcNAc(b1-3)Gal(b1-4)GlcNAc(b1-3)Gal(b1-4)GlcNAc(b1-3)Gal(b1-4)GlcNAc(b1-2)Man(a1-3)[Gal(b1-4)GlcNAc(b1-3)Gal(b1-4)GlcNAc(b1-3)Gal(b1-4)GlcNAc(b1-3)Gal(b1-4)GlcNAc(b1-2)Man(a1-6)]Man(b1-4)GlcNAc(b1-4)GlcNAc
# How it was run: as §1
binder,measurement,setting,value
B1,glycan array binding signal (z-score),[1],0.482
same,glycan array binding signal (z-score),[2],-0.368
same,glycan array binding signal (z-score),[3],-0.621
same,glycan array binding signal (z-score),[4],-0.32
same,glycan array binding signal (z-score),[5],0.511
same,glycan array binding signal (z-score),[6],-0.132
same,glycan array binding signal (z-score),[7],-0.081
same,glycan array binding signal (z-score),[8],-0.337
same,glycan array binding signal (z-score),[9],-0.37
same,glycan array binding signal (z-score),[10],0.091
same,glycan array binding signal (z-score),[11],-0.355
same,glycan array binding signal (z-score),[12],-0.186
same,glycan array binding signal (z-score),[13],-0.38
same,glycan array binding signal (z-score),[14],2.96
same,glycan array binding signal (z-score),[15],1.1
same,glycan array binding signal (z-score),[16],2.02
same,glycan array binding signal (z-score),[17],0.465
same,glycan array binding signal (z-score),[18],-0.392
same,glycan array binding signal (z-score),[19],1.7
same,glycan array binding signal (z-score),[20],1.81
same,glycan array binding signal (z-score),[21],0.941
same,glycan array binding signal (z-score),[22],5.06

# A stretch from further up, as a working copy:
binder,measurement,setting,value
B1,glycan array binding signal (z-score),[17],0.465
same,glycan array binding signal (z-score),[18],-0.392
same,glycan array binding signal (z-score),[19],1.7
same,glycan array binding signal (z-score),[20],1.81
same,glycan array binding signal (z-score),[21],0.941
